Laboratory results published in patent publication US20070048247A1, “Deodorizing tablets” (Kimberly-Clark Worldwide, Inc., priority 2005, published 2007).
For at least one compound, name, drawing or mass did not settle the structure.

What was measured:
Set-up in all cases: species or system Human
[1] = Example 3 secondary (non-urine) odor ranking; details: individual panelist scores, scale 1 to 5, 5 extremely unpleasant
Description: The effectiveness of various quinone compounds in reducing urine odor was compared. […] Human female urine was initially collected and pooled by a nurse on staff at Kimberly-Clark Corporation. The pooled urine was added to mason jars in 50-milliliter aliquots using an automated pipette aid. […] The mason jars were placed in an incubator overnight at 37° C.
In addition to ranking the jars from least to most malodorous (on a scale from 1 to 7, with 7 being the most malodors), panelists were also asked to judge whether there were secondary (non-urine) odors present and, if so, the extent that the secondary odors were unpleasant (on a scale from 1 to 5, with 5 being extremely unpleasant).

[2] = Example 5 urine odor panel ranking; details: Example 5 Group B
Description: Assessments were conducted the following day by asking panelists to rate each jar from 1 (least urine malodor) to 8 (most urine malodor). The results are set forth below in Tables 15-18.

[3] = Example 6 urine odor panel ranking; details: as Example 5, 1 least, 8 most urine malodor
Excerpt: The quinone compounds chosen for this example were Alizarin Blue Black B, Remazol Brilliant Blue R and Acid Green 25. The results are set forth below in Tables 19 and 20.

[4] = Example 7 urine odor panel ranking (16 millimolar); details: Example 7 Group D; 16 millimolar in urine; 1 least, 10 most urine malodor
Description: The effectiveness of various quinone compounds in reducing urine odor was compared. […] Human female urine was initially collected and pooled at Kimberly-Clark Corporation. The pooled urine was added to mason jars in 50-milliliter aliquots using an automated pipette aid. Powders of the aforementioned quinone compounds (commercially available from Sigma-Aldrich Chemical Co., Inc. of St. Louis, Missouri and Noveon Hilton Davis, Inc. of Cincinnati, Ohio) were weighed and placed into the mason jars containing 50 milliliters of urine so that the final concentration of the powder was 16 millimolar (equivalent to 1 wt. %). The mason jars were placed in an incubator overnight at 37° C. The experimental setup is set forth in more detail below in Table 21.
Jars were wrapped in foil and placed in an incubator at 37° C. overnight. The jars were divided into four groups (C-F), each sharing the same control jar of urine alone (no powder). Assessments were conducted the following day by asking panelists to rate each jar from 1 (least urine malodor) to 10 (most urine malodor).

[5] = 8 mM in urine, 1 least, 8 most urine malodor

SMILES: O=C1C=C(S(=O)(=O)[O-])C(=O)c2ccccc21.[K+] [1,4 Naphthaquinone, 1,4 naphthaquinone-2-sulfonic acid potassium salt]
- Secondary Odor Ranking ([1]; Example 3 second grouping): 5, 3, 5, 4

SMILES: Nc1cc(S(=O)(=O)[O-])c(O)c2c1C(=O)c1c(O)c(S(=O)(=O)[O-])cc(N)c1C2=O.[Na+].[Na+] [Acid Blue 45]
- Secondary Odor Ranking ([1]; Example 3 second grouping): 4, 4

SMILES: Cc1ccc(Nc2ccc(Nc3ccc(C)cc3S(=O)(=O)[O-])c3c2C(=O)c2c(O)ccc(O)c2C3=O)c(S(=O)(=O)[O-])c1.[Na+].[Na+] [Acid Green 41]
- Secondary Odor Ranking ([1]; Example 3 top performers, after 24 hours): 1, 3, 2

SMILES: O=C(O)CN(CC(=O)O)Cc1cc2c(c(O)c1O)C(=O)c1ccccc1C2=O [Alizarin Complexone]
- odor reduction performance (in words) [2]: performed well
- Average Rankings (Group B), Avg. Score [2, 5]: 4
- Urine Odor Ranking 2 (number of panelists) [2, 5]: 1
- Urine Odor Ranking 3 (number of panelists) [2, 5]: 2
- Urine Odor Ranking 8 (number of panelists) [2, 5]: 1
- Average Rankings, Avg. Score [3]: 4
- Urine Odor Ranking 1 (number of panelists) [3]: 1
- Urine Odor Ranking 3 (number of panelists) [3]: 1
- Urine Odor Ranking 4 (number of panelists) [3]: 1
- Urine Odor Ranking 8 (number of panelists) [3]: 1
- Average Rankings (Group D), Avg. Score [4]: 6.6
- Urine Odor Ranking 4 (number of panelists) [4]: 1
- Urine Odor Ranking 5 (number of panelists) [4]: 1
- Urine Odor Ranking 7 (number of panelists) [4]: 2
- Urine Odor Ranking 10 (number of panelists) [4]: 1
